# Data source: PubChem BioAssay AID1259254 (NCATS, 2017)
# Assay: 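Genome-wide screen for genes that prevent DNA re-replication in cancer cells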 (primary screen)
# System: human HCT116 colorectal cancer cells
# Reagents: single siRNA against human genes
# Duration: 3 days
# Detection: 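Imaged Hoechst DNA stain sorts each cell into a cycle phase by DNA amount; per plate, G2 fraction set to 0% for non-targeting and 100% for GMNN siRNA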
# Scale: G2 robust z-score and G2 cells, % of GMNN control: higher = more G2 cells, more excess DNA replication
# Active means: 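Active siRNAs have a G2 robust z of 5 or more median absolute deviations over the median, which in these data means about 38% or higher of GMNN control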
# This is an unselected part of about 59,000 reagents tested. Over the whole deposit, about 1,550 (2.6%) were called active. 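G2 share is only a proxy for re-replication; each gene was hit by three separate siRNAs, and active genes were retested.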 Reagents against one gene are numbered here. Further read-outs or replicates are left out here. Reagent sequences are not shown. Not stated in the record: the amount of reagent.
gene knocked down,reagent,G2 robust z-score,"G2 cells, % of GMNN control",call
SLC39A10,1,-0.744,-2.27,inactive
SLC39A10,2,0.956,9.69,inactive
SLC39A10,3,0.317,5.2,inactive
HTN1,1,-0.386,0.252,inactive
HTN1,2,0.375,5.6,inactive
HTN1,3,-0.172,1.76,inactive
ZIC3,1,-0.484,-0.438,inactive
ZIC3,2,1.94,16.6,inactive
ZIC3,3,-0.557,-0.951,inactive
LINC01347,1,0.551,6.84,inactive
LINC01347,2,4.56,35,inactive
LINC01347,3,-0.125,2.09,inactive
PVALB,1,-0.565,-1.01,inactive
PVALB,2,-0.493,-0.499,inactive
PVALB,3,-0.333,0.628,inactive
SPTBN4,1,0.0797,3.53,inactive
SPTBN4,2,-0.123,2.1,inactive
SPTBN4,3,-0.396,0.178,inactive
ADAM8,1,-1.36,-6.58,inactive
ADAM8,2,-1.42,-7.02,inactive
ADAM8,3,0.608,7.24,inactive
COPRS,1,-1.05,-4.39,inactive
COPRS,2,0.308,5.13,inactive
COPRS,3,4.69,36,inactive
TEX11,1,-0.48,-0.409,inactive
TEX11,2,0.0233,3.13,inactive
TEX11,3,-0.858,-3.07,inactive
IFNA7,1,-0.202,1.55,inactive
IFNA7,2,-1,-4.07,inactive
IFNA7,3,-0.713,-2.05,inactive
TMBIM6,1,-0.19,1.63,inactive
TMBIM6,2,-0.641,-1.54,inactive
TMBIM6,3,-0.199,1.57,inactive
TBATA,1,-0.181,1.69,inactive
TBATA,2,0.843,8.9,inactive
TBATA,3,4.69,36,inactive
PEX13,1,-0.836,-2.91,inactive
PEX13,2,-1.67,-8.76,inactive
PEX13,3,-0.8,-2.66,inactive
CNTNAP3B,1,4.45,34.3,inactive
CNTNAP3B,2,-0.228,1.37,inactive
CNTNAP3B,3,2.47,20.3,inactive
CNTNAP3B,4,1.1,10.7,inactive
CNTNAP3B,5,-0.82,-2.8,inactive
CNTNAP3B,6,0.473,6.29,inactive
SLC30A10,1,0.206,4.41,inactive
SLC30A10,2,-0.111,2.19,inactive
SLC30A10,3,-0.998,-4.06,inactive
SORL1,1,6.04,45.5,active
SORL1,2,-0.587,-1.16,inactive
SORL1,3,3.33,26.4,inactive
PPAT,1,0.495,6.45,inactive
PPAT,2,-1.3,-6.16,inactive
PPAT,3,-0.314,0.757,inactive
A1BG,1,0.141,3.96,inactive
A1BG,2,1.7,15,inactive
A1BG,3,2.3,19.2,inactive
IL6,1,1.06,10.4,inactive
IL6,2,-0.837,-2.92,inactive
IL6,3,1.5,13.5,inactive
GANAB,1,1.49,13.5,inactive
GANAB,2,5.71,43.2,active
GANAB,3,0.624,7.36,inactive
IDH3G,1,1.05,10.4,inactive
IDH3G,2,-0.374,0.337,inactive
IDH3G,3,-0.622,-1.41,inactive
SCN7A,1,-1.26,-5.9,inactive
SCN7A,2,0.912,9.38,inactive
SCN7A,3,3.33,26.4,inactive
DUOX1,1,2.39,19.8,inactive
DUOX1,2,-0.0126,2.88,inactive
DUOX1,3,-0.498,-0.539,inactive
TCEAL4,1,4.47,34.4,inactive
TCEAL4,2,2.05,17.4,inactive
TCEAL4,3,1.23,11.6,inactive
LIN28B,1,8.43,62.3,active
LIN28B,2,4.5,34.6,inactive
LIN28B,3,-0.441,-0.134,inactive
FETUB,1,-0.749,-2.3,inactive
FETUB,2,-1.41,-6.97,inactive
FETUB,3,0.253,4.75,inactive
NLRP1,1,1.43,13,inactive
NLRP1,2,0.0523,3.34,inactive
NLRP1,3,-0.362,0.418,inactive
BRIX1,1,2.25,18.8,inactive
BRIX1,2,0.43,5.99,inactive
BRIX1,3,0.153,4.04,inactive

Reagents listed above called active, once more:
gene knocked down,reagent,G2 robust z-score,"G2 cells, % of GMNN control",call
SORL1,1,6.04,45.5,active
GANAB,2,5.71,43.2,active
LIN28B,1,8.43,62.3,active
